No constants are given. Whether binding was seen depends on the method and setting. Binding seen in cells or lysates may run through a third protein. Binding can be weak; no strength is given. Where a sequence is shown, tags or fusion partners need not be part of it.
Biological target: Flag-PHF20L1 (human (cDNA from U2OS cells))
Assay: co-IP; SAOS2 cells transfected with HA-pRb forms and Flag-PHF20L1 forms; anti-Flag agarose in modified RIPA, 2 h at 4 °C; pRb detected by immunoblot; with or without 20 μM etoposide for 16 h

B1: HA-pRb (protein, UniProt P06400 1-928)
chain: MPPKTPRKTAATAAAAAAEPPAPPPPPPPEEDPEQDSGPEDLPLVRLEFEETEEPDFTALCQKLKIPDHVRERAWLTWEKVSSVDGVLGGYIQKKKELWGICIFIAAVDLDEMSFTFTELQKNIEISVHKFFNLLKEIDTSTKVDNAMSRLLKKYDVLFALFSKLERTCELIYLTQPSSSISTEINSALVLKVSWITFLLAKGEVLQMEDDLVISFQLMLCVLDYFIKLSPPMLLKEPYKTAVIPINGSPRTPRRGQNRSARIAKQLENDTRIIEVLCKEHECNIDEVKNVYFKNFIPFMNSLGLVTSNGLPEVENLSKRYEEIYLKNKDLDARLFLDHDKTLQTDSIDSFETQRTPRKSNLDEEVNVIPPHTPVRTVMNTIQQLMMILNSASDQPSENLISYFNNCTVNPKESILKRVKDIGYIFKEKFAKAVGQGCVEIGSQRYKLGVRLYYRVMESMLKSEEERLSIQNFSKLLNDNIFHMSLLACALEVVMATYSRSTSQNLDSGTDLSFPWILNVLNLKAFDFYKVIESFIKAEGNLTREMIKHLERCEHRIMESLAWLSDSPLFDLIKQSKDREGPTDHLESACPLNLPLQNNHTAADMYLSPVRSPKKKGSTTRVNSTANAETQATSAFQTQKPLKSTSLSLFYKKVYRLAYLRLNTLCERLLSEHPELEHIIWTLFQHTLQNEYELMRDRHLDQIMMCSMYGICKVKNIDLKFKIIVTAYKDLPHAVQETFKRVLIKEEEYDSIIVFYNSVFMQRLKTNILQYASTRPPTLSPIPHIPRSPYKFPSSPLRIPGGNIYISPLKSPYKISEGLPTPTKMTPRSRILVSIGESFGTSEKFQKINQMVCNSDRVLKRSAEGSNPPKPLKKLRFDIEGSDEADGSKHLPGESKFQQKLAEMTSTRTRMQKQKMNDSMDTSNKEEK
binding: binds
